Patent publication US10745461B2, “Pulsed introduction of low-dose RANKL as a therapy for diet-induced atherosclerosis” (Saint Louis University, priority 2015, dated 2020)
Entries after “also recorded” stand apart in the source; their conditions may differ. At least one compound was matched to its structure with a doubt left.

How the values were obtained:
[1] = test system: FoxP3 induction in OT-I CD8 T-cells by osteoclasts; test: TcREG (FoxP3) induction in OT-I CD8 T-cells co-cultured with bone marrow-derived osteoclasts; assay type: cell-based, mice; conditions: in culture, IL-17 10 ng/ml, increasing TNFα, DAPT 10 μM, Fc proteins added to T-cells prior to co-culture
Method: It was also determined that IL-17 and TNFα suppresses TcREG induction by osteoclasts. […] Another possibility is that loss of estrogen leads to increased production of the pro-inflammatory cytokines by T-cells that increase osteoclast activity. Without being limited to any method of operation, it is actually expected that in the presence of pro-inflammatory cytokines osteoclasts fail to induce TcREG. As estrogen depletion lead to greater number of osteoclasts because of a decreased Fas ligand expression, the loss of TcREG induction and increased osteoclast numbers would tip the balance towards increased osteoclast resorption and net bone loss. To test fir this possibility, OC-iTcREG induction was measured in the presence of IL-17 and TNFα. […] To understand the underlying mechanism of how TNFα affects osteoclasts' ability to induce TcREG, the signals provided by osteoclasts to induce FoxP3 in the CD8 T-cells were investigated along with if these signals were affected by […].
The most common and well-studied costimulatory signals on antigen-presenting cells are CD80 (B7.1) and CD86 (B7.2). As CD80/CD86 double knockout mice are commercially available, osteoclasts were generated from bone marrow precursors of these mice. The CD80/CD86 null osteoclasts (as well as wild-type controls) were then used to prime OT-I T-cells in the presence and absence of antigen. […]

[2] = test system: FoxP3+ CD8 T-cells (TcREG); test: TcREG induction by low-dose RANKL in mice treated with Odanacatib; conditions: in vivo
[3] = test system: FoxP3+ CD8 T-cells (TcREG); test: In vivo TcREG induction: GFP negative CD8 T-cells adoptively transferred into OT-I Rag-/- mice; conditions: ZA i.v. one week prior to transfer, DLL4-Fc or IgG1-Fc i.v. 2 hours prior to RANKL
Method: FIGS. 1A, 1B and 1C indicate that TcREG are induced by activated osteoclasis. […] In the absence of RANK L treatment, very low level of conversion was observed after three days. […] ZA was administered intravenously one week prior to adoptive transfer of CD8 T-cells.
It was first determined the dose of RANKL that produced the maximal number FoxP3^+ CD8 T-cells in the bone marrow. RANKL was administered into FoxP3-GFP reporter mice at various doses for two consecutive days. Fifty hours after first dose, the mice were sacrificed and the numbers of CD8 T-cells that were GFP positive cells in the bone marrow were measured. […] The increased levels of FoxP3 in the bone marrow could either be due to recruitment of TcREG to the bone marrow or induction of FoxP3 expression in cells that were FoxP3 negative. To test for induction FACS sorted the GFP negative population of CD8 (Thy 1.2+ that were CD44 negative or naïve) from the spleens and bone marrow to high purity (FIG. 1C first panel) and adoptively transferred them into congenically marked (Thy 1.1) OT-I Rag^−/− mice. […] In the absence of RANKL administration low levels […] CD8 T-cell were detected (FIGS. 1B and C second panel), but RANKL administration (0.125 mg/kg) yielded ˜1% […] Thy 1.2 T-cells (FIGS. 1B and 1C third panel). […]

TNFα and IL17A = test: Once per month low-dose RANKL or Zoledronate: cytokines from peripheral blood cells by multiplexed ELISA; assay type: in vivo, mice; conditions: 120 days post-OVX; RANKL 0.125 mg/kg once per month; ZA once 3 weeks post-OVX
Method: To assess the kinetics of a single treatment, C57BL/6J ovariectomized mice were treated with low-dose RANKL (administered twice 24 hrs apart, 2 weeks post-OVX) and then followed by serum CTX assay. […] In FIG. 11B, to assess whether multiple treatments are effective, sham-operated (Sx) or OVX 12-week old C57BL/6J mice were treated with low-dose RANKL (0.125 mg/kg) once per month or once with the bisphosphonate Zoledronate (ZA; 3 weeks post-OVX). 120 days post-OVX peripheral blood obtained by mandible bleeds was treated to remove RBCs (BD Pharmalyse) then 1 to 3×10^6 cells were plated per well in triplicate (6 mice/group). Media was collected after 36 hours of culturing and cytokine levels quantitated by multiplexed ELISA (Millipore).

IL-17A and TNFα = test: WD-fed ovariectomized WT mice: TcREG and IL-17A/TNFα production by peripheral blood T-cells; assay type: in vivo; conditions: WD-fed OVX WT mice; listed as Zoledronate
Text: It has been previously shown that low-dose RANKL (IdRANKL) induces TcREG in bone marrow. We postulated that induction of TcREG might be atheroprotective as it protects against osteoporosis in ovariectomized mice. To test that proposal, we first tested the ability of IdRANKL to modulate the systemic availability of proinflammatory cytokines. Thus, a new group of WT mice were fed WD, and subjected to sham or OVX surgeries, then dosed with saline or IdRANKL (two i.p. injections 3 and 7 weeks after OVX). […] We then, measured the ability of freshly isolated T-cells from peripheral blood to produce IL-17A and TNFα. […] Zoledronate is a bisphosphonate that is used clinically to prevent bone resorption (by suppressing osteoclasts). […] Without being limited to any particular theory of operation, we hypothesize that these cells contribute to postmenopausal comorbidities such as atherosclerosis and osteoporosis, and that immunosuppressing therapies such as pulsed IdRANKL will have cardio- and osteo-protective effects.

Row | Structure (SMILES) | effect of added agent on TcREG/FoxP3 induction by osteoclasts [1] | effect of added agent on TcREG/FoxP3 induction by osteoclasts ([1]; listed as Odancatib) | TcREG induction by low-dose RANKL in Odanacatib-treated mice [2] | TcREG induction by low-dose RANKL in Odanacatib-treated mice ([2]; listed as Odancatib) | TcREG induction by RANKL (0.125 mg/kg) in pre-treated recipient mice [3] | TcREG induction by RANKL (0.125 mg/kg) in pre-treated recipient mice ([3]; listed as ZA) | TNFα and IL17A produced by peripheral blood cells (immunosuppression) (TNFα and IL17A) | IL-17A and TNFα produced by freshly isolated peripheral blood cells (ELISA) (IL-17A and TNFα)
1 | CC(C)(F)C[C@H](N[C@@H](c1ccc(-c2ccc(S(C)(=O)=O)cc2)cc1)C(F)(F)F)C(=O)NC1(C#N)CC1 [Odanacatib] | has no direct effect on osteoclasts or T-cells | not affected | blocked TcREG induction by low-dose RANKL; also recorded: blocks TcREG induction in vivo | TcREG induction was not observed |  |  |  | 
2 | O=P(O)(O)C(O)(Cn1ccnc1)P(=O)(O)O [Zoledronic acid, reference compound] |  |  |  |  | no induction of TcREG was observed | no conversion of CD8 T-cells to GFP^+ was observed | but not ZA was immunosuppressive | lacks immunosuppressive activity; also recorded: but not Zoledronate, abrogates OVX-induced increase in TNFα and IL-17A expression
